Measurements published in PMC11449308.
Residue numbers refer to the chain shown, from its start. Names and notes keep the numbering of the source. Results are given in words; binding and its absence hold for the method and conditions named. Binding seen in cells or lysates may run through a third protein. Some entries that bind do so weakly or less than the wild type. Blank lines part the entries; values can stand above or below the binder they belong to.

Sequences of proteins named here, by UniProt entry; tags and fusion partners are left off.
UniProt P70168: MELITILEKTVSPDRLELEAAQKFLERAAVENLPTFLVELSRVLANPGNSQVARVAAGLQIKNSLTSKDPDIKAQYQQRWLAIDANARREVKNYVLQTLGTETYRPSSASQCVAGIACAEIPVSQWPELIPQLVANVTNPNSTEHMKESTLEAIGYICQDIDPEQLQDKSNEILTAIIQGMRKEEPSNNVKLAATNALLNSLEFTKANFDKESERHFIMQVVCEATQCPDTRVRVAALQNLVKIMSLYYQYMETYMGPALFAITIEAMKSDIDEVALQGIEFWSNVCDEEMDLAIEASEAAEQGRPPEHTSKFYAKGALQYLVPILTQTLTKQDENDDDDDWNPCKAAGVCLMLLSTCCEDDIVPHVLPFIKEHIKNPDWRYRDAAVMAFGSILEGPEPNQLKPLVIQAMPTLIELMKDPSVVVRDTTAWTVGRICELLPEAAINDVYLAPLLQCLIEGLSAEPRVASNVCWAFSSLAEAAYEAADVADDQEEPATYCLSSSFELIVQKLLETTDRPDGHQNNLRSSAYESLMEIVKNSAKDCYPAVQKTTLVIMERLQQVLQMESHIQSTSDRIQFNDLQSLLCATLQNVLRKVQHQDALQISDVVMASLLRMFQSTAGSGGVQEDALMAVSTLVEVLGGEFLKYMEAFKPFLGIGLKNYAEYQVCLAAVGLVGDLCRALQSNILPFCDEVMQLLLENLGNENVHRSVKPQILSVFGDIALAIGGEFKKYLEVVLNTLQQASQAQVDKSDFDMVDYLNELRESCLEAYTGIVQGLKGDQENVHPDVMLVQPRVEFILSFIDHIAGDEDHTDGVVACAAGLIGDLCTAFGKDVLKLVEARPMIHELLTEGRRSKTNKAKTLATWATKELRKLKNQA

Molecular target: Importin-β (mouse (endogenous in MEFs)) (UniProt P70168)
Assay: proximity ligation; DuoLink in situ PLA on fixed (4% paraformaldehyde), Triton X-100 permeabilised WT and Nemf^R86S MEFs; primary antibodies to NEMF and Importin-β; mean PLA frequency and intensity by confocal imaging

binding: binds
B1: NEMF R86S (protein, UniProt Q8CCP0 1-1064)
chain: MKSRFSTVDLRAVLAELNASLLGMRVNNVYDVDNKTYLIRLQKPDFKATLLLESGIRIHTTEFEWPKNMMPSSFAMKCRKHLKSRSLVSAKQLGVDRIVDFQFGSDEAAYHLIIELYDRGNIVLTDYEYLILNILRFRTDEADDVKFAVRERYPIDHARAAEPLLTLERLTEVIAAAPKGEVLKRVLNPLLPYGPALIEHCLIESGFSGNAKVDEKLESKDIEKILVCVQRAEDYLRKTSNFNGKGYIIQKREAKPSLDADKPAEDILTYEEFHPFLFSQHLQCPYIEFESFDKAVDEFYSKIEGQKIDLKALQQEKQALKKLDNVRKDHENRLEALQQAQEIDKLKGELIEMNLQIVDRAIQVVRSALANQIDWTEIGVIVKEAQAQGDPVACAIKELKLQTNHVTMLLRNPYLLSEEEDGDGDASIENSDAEAPKGKKKKQKNKQLQKPQKNKPLLVDVDLSLSAYANAKKYYDHKRYAAKKTQRTVEAAEKAFKSAEKKTKQTLKEVQTVTSIQKARKVYWFEKFLWFISSENYLIIGGRDQQQNEIIVKRYLTPGDIYVHADLHGATSCVIKNPTGEPIPPRTLTEAGTMALCYSAAWDARVITSAWWVYHHQVSKTAPTGEYLTTGSFMIRGKKNFLPPSYLMMGFSFLFKVDESCVWRHRGERKVRVQDEDMETLTSCTSELMAEEMEQLEGGDSSEEETEELHGMPGDVELMTQVDQEDIAVHSGRDELSSEDGEAKAVTKDQEPIGEMKEEEEDTFEYPDTTIDLSHLQSQRPLQKLAPREESLNSNDSKSQGRRHLSAKERREMKKKKLPCESGDLEVIEEKDKERESAVHTEAYQNTSKNVAAGQPMKRGQKSKMKKMKEKYKDQDDEDRELIMKLLASAGSNKEEKGKKGKKGKPKDEPVKKPPQKPRGGQRVLDVVKEPPSLQVLAHDLQDLAVDDPHDDKEEHDLDQQGNEENLFDSLTGQPHPEDVLMFAIPICAPYTIMTNYKYKVKLTPGVQKKGKAAKTALNSFMHSKEATAREKDLFRSVKDTDLSRNIPGKVKVSAPNLLHVKRK

binding: binds
B2: Nuclear Export Mediator Factor (NEMF), wild type (protein, UniProt Q8CCP0 1-1064)
chain: B1 chain with S86R
